# Results of single-concentration screens

Measurements from “University of Dundee, Small-Polar-MMV Screening Library” (2021), ChEMBL document CHEMBL3988442.

The filed quantity is “Percent Effect” (%).
The record does not define 0% and 100%; most values in the screen are far below 50% and negative numbers occur (in some assays of this library far below -100).
This is an unselected part of the compounds tested.
Two or more numbers in one place are separate tests of the same structure; such repeats can differ widely.

Mtb cholesterol medium: 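Phenotypic screen: M. tuberculosis growth, cholesterol and DPPC medium, 4 days; the read-out is not stated. Concentration: 50 µM. Higher reads as more growth inhibition (inferred: compounds with an IC50 in retests scored well above the rest). About 69,000 compounds were tested under these conditions; 0.54% (about 370) showed 50% or more at least once.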
Mtb glucose medium: 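Phenotypic screen: M. tuberculosis growth, glucose 7H9 medium, 3 days; the read-out is not stated. Tested at 50 µM. Higher reads as more growth inhibition (inferred: compounds with an IC50 in retests scored well above the rest). About 69,000 compounds were tested under these conditions; 1.1% (about 760) showed 50% or more at least once.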

compound: CC(C)c1nc(C2CCCN(C(=O)Cc3cccnc3)C2)no1 (configuration not stated)
Mtb cholesterol medium: -3.268%
Mtb glucose medium: 8.344%

compound: CN(CCn1cnnc1)C(=O)c1ccnc(OC2CCC2)c1
Mtb cholesterol medium: 13.19%
Mtb glucose medium: 9.13% & 4.833%

compound: N#CCCN(C(=O)CN1CCCC1Cc1ccccc1)c1ccccc1 (configuration not stated)
Mtb cholesterol medium: 6.991% & -0.4269%
Mtb glucose medium: 36.86%

compound: Cc1cn2nc(N3CCCC3CC(C)(C)C)sc2n1 (configuration not stated)
Mtb cholesterol medium: -15.29%
Mtb glucose medium: -15.44%

compound: O=C(O)C(F)(F)F.O=C(c1ccc[nH]1)N1CCCn2c(CNC3CCC3)nnc2C1
Mtb cholesterol medium: 1.905%
Mtb glucose medium: 8.699%

compound: Cc1csc(C2CCCCN2C(=O)Cn2cncn2)n1 (configuration not stated)
Mtb cholesterol medium: -19.75%
Mtb glucose medium: -22.36%

compound: OC(CNCCn1cccn1)COc1ccc(F)cc1 (configuration not stated)
Mtb cholesterol medium: 5.459%
Mtb glucose medium: 24.17%

compound: O=C(O)C(F)(F)F.[H][C@@]12OCCN(CC3CC3)[C@@]1([H])CC[C@H]2OC
Mtb cholesterol medium: -3.788%
Mtb glucose medium: -28.15%

compound: Cc1ccccc1-c1cc(C(=O)N2CCCC(n3ccnc3C)C2)[nH]n1 (configuration not stated)
Mtb cholesterol medium: -7.682%
Mtb glucose medium: -4.252%

compound: Cn1nc(C(=O)NCc2ccc(OC3CCCCC3)nc2)ccc1=O
Mtb cholesterol medium: 1.432%
Mtb glucose medium: -6.281%

compound: [H][C@@]12CCCC[C@@]1([H])CN(Cc1nc(Cc3ccccc3F)no1)CC2
Mtb cholesterol medium: 5.012%
Mtb glucose medium: -12.83%

compound: Cc1cccc(OC2CN(C(=O)c3cnn(C)c3)C2)c1
Mtb cholesterol medium: -2.623%
Mtb glucose medium: -7.496% & 6.047%

compound: CC(C)OC(=O)N1CCC(Cc2ccc(C(=O)O)cc2)C1 (configuration not stated)
Mtb cholesterol medium: -7.317%
Mtb glucose medium: -7.007%

compound: COc1ncc(CN2CCC3(CCNC(=O)CC3)CC2)cn1
Mtb cholesterol medium: -0.3761%
Mtb glucose medium: -2.231%

compound: COc1ccc(CC(=O)N2CC(=O)NCC(C)(C)C2)cc1
Mtb cholesterol medium: 0.7981%
Mtb glucose medium: 9.567%

compound: COc1c(C2CCCN2CC(=O)Nc2cc(C)nn2C)c(C)nn1C (configuration not stated)
Mtb cholesterol medium: -13.79%
Mtb glucose medium: -40.21% & -5.566%

compound: Cc1cc(C)n(CC2CCCCN2C(=O)CCc2ccncc2)n1 (configuration not stated)
Mtb cholesterol medium: -6.46%
Mtb glucose medium: -25.24%

compound: CCc1nc(C2CCCN2c2ncc(C(F)(F)F)cc2Cl)no1 (configuration not stated)
Mtb cholesterol medium: 32.37%
Mtb glucose medium: 26.74% & 29.88%

compound: [H][C@@]12COC[C@H](C(=O)NC3CC3)[C@]1([H])CN(c1ncc(F)cn1)C2
Mtb cholesterol medium: 7.11%
Mtb glucose medium: -4.151% & -15.27%

compound: CCn1cnnc1CCNC(=O)C1COc2ccc(OC)cc2C1 (configuration not stated)
Mtb cholesterol medium: -11.42%
Mtb glucose medium: -2.711%

compound: [H][C@@]12CCN(C(=O)c3occc3C)C[C@@]1([H])O[C@H](c1noc(C)n1)C2
Mtb cholesterol medium: -10.49%
Mtb glucose medium: -21.61%

compound: Cn1cc2c(n1)C(CNC(=O)Cc1ccsc1)OCC2 (configuration not stated)
Mtb cholesterol medium: 5.524%
Mtb glucose medium: 8.959%

compound: Cc1cc(C(=O)N2CCC(N3CCNC3=O)CC2)nn1C(C)(C)C
Mtb cholesterol medium: -3.612% & 1.317%
Mtb glucose medium: 24.18%

compound: CCCc1cc(=O)[nH]c2nnc(SCC(=O)OC)n12
Mtb cholesterol medium: -16.44%
Mtb glucose medium: -29.75%

compound: [H][C@@]12CCCO[C@]1([H])[C@@H](OCC1CCOCC1)CN2C(=O)c1ccnnc1
Mtb cholesterol medium: -0.3358%
Mtb glucose medium: -6.626%

compound: Cc1ccccc1CN1CCCN(C2CCOC2=O)CC1 (configuration not stated)
Mtb cholesterol medium: 0.5001%
Mtb glucose medium: 13.32%

compound: CCN1CCOC(CNCc2csc(C)n2)C1 (configuration not stated)
Mtb cholesterol medium: -7.949%
Mtb glucose medium: -12.46%

compound: O=C(NCc1cc(N2CCOCC2)ncn1)c1cccc(CO)n1
Mtb cholesterol medium: -4.036%
Mtb glucose medium: -21.98%

compound: Cc1nc(C)n(CC2CN(CCOc3ccccc3F)CCO2)n1 (configuration not stated)
Mtb cholesterol medium: 3.343%
Mtb glucose medium: -6.42%

compound: Cc1nc(CNCc2ccc(N3CCC(CO)CC3)nc2)cs1
Mtb cholesterol medium: 10.3%
Mtb glucose medium: 6.394%

compound: [H][C@]12CC[C@@]3(N=C(C)N(C)C3=O)[C@@]1([H])CN(Cc1ccccc1F)C2
Mtb cholesterol medium: -8.233% & -0.1807%
Mtb glucose medium: 26.22%

compound: Cc1nc(CN(C)C2CCN(CCc3ccc4c(c3)CCO4)C2)no1 (configuration not stated)
Mtb cholesterol medium: 3.692%
Mtb glucose medium: -12.24%

compound: [H][C@]12CC[C@]([H])(CN(C(=O)CC(F)(F)F)C1)N(Cc1ccccc1)C2=O
Mtb cholesterol medium: -5.929%
Mtb glucose medium: 0.9239% & 9.972%

compound: CN(C)CC1CN(Cc2cccc(C(=O)N(C)C)c2)CCO1 (configuration not stated)
Mtb cholesterol medium: -30.17%
Mtb glucose medium: -15.72%

compound: NC(=O)NC(CC(=O)NCCc1cccc(F)c1)c1cccs1 (configuration not stated)
Mtb cholesterol medium: -15.33%
Mtb glucose medium: 0.4062%

compound: Cc1cccc(OC2CCN(C(=O)c3ccc4ncsc4c3)CC2)n1
Mtb cholesterol medium: -2.302%
Mtb glucose medium: -6.877%

compound: CCn1cc2c(n1)CN(CC1CC1)CC2COCC1CC1.O=C(O)C(F)(F)F (configuration not stated)
Mtb cholesterol medium: -8.573%
Mtb glucose medium: 4.472%

compound: COCC1CN(C(=O)c2cccs2)Cc2nccn2C1 (configuration not stated)
Mtb cholesterol medium: -7.19% & -17.37%
Mtb glucose medium: -6.704%

compound: CN(C)C(=O)CN1CCN(C(=O)c2cnn(-c3ccccc3Cl)c2)CC1
Mtb cholesterol medium: -8.624%
Mtb glucose medium: -3.317%

compound: Cc1cc(C)c2nc(CN[C@H]3CCCNC3)cc(O)c2c1
Mtb cholesterol medium: 35%
Mtb glucose medium: 35.14%

compound: O=C1CN(Cc2nnc(-c3ccc(Br)o3)o2)CCN1
Mtb cholesterol medium: -25.22%
Mtb glucose medium: -6.563% & -0.4484%

compound: O=C(O)C(F)(F)F.O=C(O)C(F)(F)F.[H][C@@]12CN(CCOC)C[C@]1([H])[C@@H](OC)CCN2S(=O)(=O)c1cccnc1
Mtb cholesterol medium: -14.97% & 9.171%
Mtb glucose medium: -5.036%

compound: O=C(CCCn1ccnc1)N1CCC2(CC1)[C@H](O)C[C@@H]2OCCO
Mtb cholesterol medium: 0.4597%
Mtb glucose medium: -2.82% & 7.008%

compound: c1cc(-c2cnc(C3CCNCC3)cn2)n[nH]1
Mtb cholesterol medium: 11.17%
Mtb glucose medium: 4.414%

compound: CC(C)c1nccn1-c1cccc(C2CCN(C)CC2)n1
Mtb cholesterol medium: 18.79%
Mtb glucose medium: 6.497%

compound: COc1ccc(S(=O)(=O)N2CCn3nc(C)nc3C2)cc1C
Mtb cholesterol medium: 15.93%
Mtb glucose medium: 20.35% & -12.15%

compound: CN1CCC(N2Cc3nc(N)ncc3C2=O)CC1
Mtb cholesterol medium: -8.138%
Mtb glucose medium: 37.74%

compound: Cc1cc2c(cc1CNC(Cc1cccs1)c1nccs1)OCO2.Cl (configuration not stated)
Mtb cholesterol medium: 14.15% & 59.95%
Mtb glucose medium: 9.871%

The first 3 entries again:

compound,Mtb cholesterol medium,Mtb glucose medium
CC(C)c1nc(C2CCCN(C(=O)Cc3cccnc3)C2)no1 (configuration not stated),-3.268%,8.344%
CN(CCn1cnnc1)C(=O)c1ccnc(OC2CCC2)c1,13.19%,9.13% & 4.833%
N#CCCN(C(=O)CN1CCCC1Cc1ccccc1)c1ccccc1 (configuration not stated),6.991% & -0.4269%,36.86%